Measurements as given in US9987307B2, “Tolerogenic dendritic cells, methods of producing the same, and uses thereof” (SOTIO A.S., priority 2014, dated 2018).
For at least one compound, name, drawing or mass did not settle the structure.

Tested on: cDCs
Assay: IL-10 and IL-12 production of restimulated cDCs in the presence of inhibitors (ELISA)
Format: cell-based, human
Procedure: To induce maturation, DC were treated with vaccine grade monophosphoryl lipid A (MPLA) (2 μg/ml, Cayla-InvivoGen) on day 6 or on day 7. On day 7 or on day 8, DC were harvested, washed and functional assays were performed. Control DC (cDC) were cultured without tolerising factors. […]
Cell supernatants were harvested after 24 hours of DC stimulation and frozen at −80° C. until analysis. IL-10, IL-12p70, IL-6 and TNFα concentrations were determined in cell culture supernatants of activated DCs using Luminex assay (MILLIPLEX™ Human Cytokine/Chemokine Kit, Merck Millipore) and ELISA assay (DuoSet ELISA Kit, R&D systems) according to manufacturer's instructions. […]
Cell supernatants were harvested after 24 h of DC stimulation and frozen at −80° C. until analysis. IL-10, IL-12p70, TNF-α and TGF-β concentrations were determined using Luminex assay (MILLIPLEX™ Human Cytokine/Chemokine Kit, Merck Millipore) and ELISA assay (DuoSet ELISA Kit, R&D systems) according to the manufacturer's instructions. […]

## CO[C@H]1C[C@@H]2CC[C@@H](C)[C@@](O)(O2)C(=O)C(=O)N2CCCC[C@H]2C(=O)O[C@H]([C@H](C)C[C@@H]2CC[C@@H](O)[C@H](OC)C2)CC(=O)[C@H](C)/C=C(\C)[C@@H](O)[C@@H](OC)C(=O)[C@H](C)C[C@H](C)/C=C/C=C/C=C/1C [rapamycin]
After LPS and CC triggering
  IL-12 production in cDCs in the presence of inhibitor: markedly increased IL-12 production
After LPS restimulation
  IL-10 production in cDCs in the presence of inhibitor: down-regulated IL-10 production
